Measurements published in the supplement of paper PMC10849652.
This is one part of the list.

Protein sequences, listed by entry. Tags and fused reporters are not part of them. Lines headed by an entry give the natural chain unless they say otherwise; changes in a name come on top.
UniProt O95433, whole entry, looked up: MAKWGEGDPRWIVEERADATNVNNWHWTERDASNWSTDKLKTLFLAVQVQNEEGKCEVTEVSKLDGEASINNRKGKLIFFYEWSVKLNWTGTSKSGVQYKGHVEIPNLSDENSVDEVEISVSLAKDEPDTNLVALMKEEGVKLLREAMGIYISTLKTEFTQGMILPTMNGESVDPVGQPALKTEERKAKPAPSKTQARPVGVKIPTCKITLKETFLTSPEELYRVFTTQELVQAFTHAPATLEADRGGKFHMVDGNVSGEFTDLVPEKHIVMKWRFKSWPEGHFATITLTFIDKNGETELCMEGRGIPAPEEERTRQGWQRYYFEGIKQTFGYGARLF
UniProt P05091: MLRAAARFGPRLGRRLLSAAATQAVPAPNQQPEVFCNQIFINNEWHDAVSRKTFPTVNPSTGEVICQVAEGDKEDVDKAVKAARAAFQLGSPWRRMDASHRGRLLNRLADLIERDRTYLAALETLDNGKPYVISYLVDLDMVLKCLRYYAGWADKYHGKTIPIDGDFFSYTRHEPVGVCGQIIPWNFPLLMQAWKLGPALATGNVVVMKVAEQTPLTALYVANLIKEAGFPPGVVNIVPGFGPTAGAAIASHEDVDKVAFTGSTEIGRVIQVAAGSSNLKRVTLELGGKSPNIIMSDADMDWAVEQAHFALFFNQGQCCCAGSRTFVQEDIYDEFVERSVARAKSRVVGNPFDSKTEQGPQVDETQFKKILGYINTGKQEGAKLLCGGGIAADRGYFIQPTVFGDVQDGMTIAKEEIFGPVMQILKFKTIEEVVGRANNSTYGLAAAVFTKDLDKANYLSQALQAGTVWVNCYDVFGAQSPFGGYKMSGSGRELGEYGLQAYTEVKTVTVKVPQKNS
UniProt Q96A54: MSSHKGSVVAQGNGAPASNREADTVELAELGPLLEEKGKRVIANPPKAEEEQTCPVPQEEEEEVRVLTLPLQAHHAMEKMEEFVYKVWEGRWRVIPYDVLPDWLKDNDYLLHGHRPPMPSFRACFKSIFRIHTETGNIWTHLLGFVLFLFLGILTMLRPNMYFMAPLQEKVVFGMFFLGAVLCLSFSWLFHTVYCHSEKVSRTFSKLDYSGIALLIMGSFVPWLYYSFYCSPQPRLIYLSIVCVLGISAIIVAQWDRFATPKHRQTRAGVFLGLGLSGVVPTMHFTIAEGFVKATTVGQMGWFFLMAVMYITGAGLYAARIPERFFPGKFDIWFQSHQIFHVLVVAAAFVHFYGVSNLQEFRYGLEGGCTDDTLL
UniProt Q9UHB7: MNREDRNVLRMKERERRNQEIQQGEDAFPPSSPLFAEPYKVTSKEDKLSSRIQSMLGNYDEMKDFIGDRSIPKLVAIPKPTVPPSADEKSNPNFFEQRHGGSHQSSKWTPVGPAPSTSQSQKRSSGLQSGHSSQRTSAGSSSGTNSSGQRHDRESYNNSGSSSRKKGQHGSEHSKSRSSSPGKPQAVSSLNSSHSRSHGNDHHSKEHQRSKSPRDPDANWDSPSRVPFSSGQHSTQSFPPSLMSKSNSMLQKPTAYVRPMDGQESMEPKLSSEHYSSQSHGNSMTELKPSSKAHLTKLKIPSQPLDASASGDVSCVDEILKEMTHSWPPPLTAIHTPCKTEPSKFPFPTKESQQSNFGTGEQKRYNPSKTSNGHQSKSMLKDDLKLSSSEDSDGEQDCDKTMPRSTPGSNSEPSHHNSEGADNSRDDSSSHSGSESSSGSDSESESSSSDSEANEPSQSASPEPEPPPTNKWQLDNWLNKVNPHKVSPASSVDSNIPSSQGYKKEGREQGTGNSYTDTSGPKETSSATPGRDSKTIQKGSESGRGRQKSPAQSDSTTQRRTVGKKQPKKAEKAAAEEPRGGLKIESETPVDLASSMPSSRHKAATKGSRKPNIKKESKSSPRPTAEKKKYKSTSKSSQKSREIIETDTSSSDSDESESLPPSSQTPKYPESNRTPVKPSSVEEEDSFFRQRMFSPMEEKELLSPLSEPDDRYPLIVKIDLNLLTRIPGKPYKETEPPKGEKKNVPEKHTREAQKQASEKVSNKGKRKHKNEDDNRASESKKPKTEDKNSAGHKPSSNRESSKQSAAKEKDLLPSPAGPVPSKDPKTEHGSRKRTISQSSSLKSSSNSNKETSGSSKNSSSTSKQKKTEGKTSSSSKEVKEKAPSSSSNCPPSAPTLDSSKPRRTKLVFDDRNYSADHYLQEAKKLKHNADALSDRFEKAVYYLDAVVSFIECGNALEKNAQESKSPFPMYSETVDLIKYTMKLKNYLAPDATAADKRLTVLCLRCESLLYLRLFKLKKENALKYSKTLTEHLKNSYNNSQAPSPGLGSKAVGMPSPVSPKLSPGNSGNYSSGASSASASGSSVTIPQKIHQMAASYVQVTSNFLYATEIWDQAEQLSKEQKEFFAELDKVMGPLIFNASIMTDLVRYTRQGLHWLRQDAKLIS
UniProt P05062: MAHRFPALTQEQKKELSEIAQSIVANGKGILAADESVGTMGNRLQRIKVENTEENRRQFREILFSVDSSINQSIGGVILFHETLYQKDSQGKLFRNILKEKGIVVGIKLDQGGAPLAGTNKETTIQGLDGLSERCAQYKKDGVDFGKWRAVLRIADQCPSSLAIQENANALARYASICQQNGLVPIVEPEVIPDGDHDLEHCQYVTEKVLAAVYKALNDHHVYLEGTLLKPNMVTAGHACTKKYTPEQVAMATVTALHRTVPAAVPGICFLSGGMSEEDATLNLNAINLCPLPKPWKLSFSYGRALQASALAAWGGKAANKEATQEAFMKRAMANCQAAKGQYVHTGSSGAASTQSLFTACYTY
UniProt Q9Y3D8, whole entry, looked up: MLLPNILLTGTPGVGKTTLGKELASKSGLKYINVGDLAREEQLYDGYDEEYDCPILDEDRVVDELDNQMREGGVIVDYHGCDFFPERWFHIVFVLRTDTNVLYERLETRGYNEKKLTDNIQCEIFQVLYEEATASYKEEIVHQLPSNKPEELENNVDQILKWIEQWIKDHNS
UniProt Q9NRZ5: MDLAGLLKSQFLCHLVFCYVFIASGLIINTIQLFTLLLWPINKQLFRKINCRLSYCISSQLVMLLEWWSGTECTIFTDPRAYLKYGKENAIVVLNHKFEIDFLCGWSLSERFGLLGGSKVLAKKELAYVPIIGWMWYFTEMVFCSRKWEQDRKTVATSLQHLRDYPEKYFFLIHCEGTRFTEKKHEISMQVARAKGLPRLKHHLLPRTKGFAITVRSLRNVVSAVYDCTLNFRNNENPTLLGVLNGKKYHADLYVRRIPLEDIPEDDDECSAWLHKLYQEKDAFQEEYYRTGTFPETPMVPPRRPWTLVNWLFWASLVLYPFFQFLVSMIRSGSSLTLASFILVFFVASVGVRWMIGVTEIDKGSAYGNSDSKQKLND
UniProt O15120: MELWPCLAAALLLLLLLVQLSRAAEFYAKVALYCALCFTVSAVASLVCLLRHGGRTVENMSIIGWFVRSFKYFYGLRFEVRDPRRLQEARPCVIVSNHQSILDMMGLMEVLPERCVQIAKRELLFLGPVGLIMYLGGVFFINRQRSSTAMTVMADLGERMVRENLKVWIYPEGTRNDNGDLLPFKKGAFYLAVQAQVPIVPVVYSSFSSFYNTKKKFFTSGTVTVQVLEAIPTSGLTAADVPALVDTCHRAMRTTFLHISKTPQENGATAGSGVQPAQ
UniProt P54922: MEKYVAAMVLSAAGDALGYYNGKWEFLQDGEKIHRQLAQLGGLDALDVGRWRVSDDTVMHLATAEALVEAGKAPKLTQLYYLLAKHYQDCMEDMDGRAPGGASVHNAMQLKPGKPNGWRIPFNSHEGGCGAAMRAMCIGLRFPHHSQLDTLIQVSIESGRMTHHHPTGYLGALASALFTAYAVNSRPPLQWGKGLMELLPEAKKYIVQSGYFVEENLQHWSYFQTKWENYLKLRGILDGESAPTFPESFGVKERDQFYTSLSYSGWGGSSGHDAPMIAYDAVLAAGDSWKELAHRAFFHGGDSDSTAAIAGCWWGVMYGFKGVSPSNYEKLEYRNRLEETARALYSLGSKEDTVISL
UniProt Q9UKA4: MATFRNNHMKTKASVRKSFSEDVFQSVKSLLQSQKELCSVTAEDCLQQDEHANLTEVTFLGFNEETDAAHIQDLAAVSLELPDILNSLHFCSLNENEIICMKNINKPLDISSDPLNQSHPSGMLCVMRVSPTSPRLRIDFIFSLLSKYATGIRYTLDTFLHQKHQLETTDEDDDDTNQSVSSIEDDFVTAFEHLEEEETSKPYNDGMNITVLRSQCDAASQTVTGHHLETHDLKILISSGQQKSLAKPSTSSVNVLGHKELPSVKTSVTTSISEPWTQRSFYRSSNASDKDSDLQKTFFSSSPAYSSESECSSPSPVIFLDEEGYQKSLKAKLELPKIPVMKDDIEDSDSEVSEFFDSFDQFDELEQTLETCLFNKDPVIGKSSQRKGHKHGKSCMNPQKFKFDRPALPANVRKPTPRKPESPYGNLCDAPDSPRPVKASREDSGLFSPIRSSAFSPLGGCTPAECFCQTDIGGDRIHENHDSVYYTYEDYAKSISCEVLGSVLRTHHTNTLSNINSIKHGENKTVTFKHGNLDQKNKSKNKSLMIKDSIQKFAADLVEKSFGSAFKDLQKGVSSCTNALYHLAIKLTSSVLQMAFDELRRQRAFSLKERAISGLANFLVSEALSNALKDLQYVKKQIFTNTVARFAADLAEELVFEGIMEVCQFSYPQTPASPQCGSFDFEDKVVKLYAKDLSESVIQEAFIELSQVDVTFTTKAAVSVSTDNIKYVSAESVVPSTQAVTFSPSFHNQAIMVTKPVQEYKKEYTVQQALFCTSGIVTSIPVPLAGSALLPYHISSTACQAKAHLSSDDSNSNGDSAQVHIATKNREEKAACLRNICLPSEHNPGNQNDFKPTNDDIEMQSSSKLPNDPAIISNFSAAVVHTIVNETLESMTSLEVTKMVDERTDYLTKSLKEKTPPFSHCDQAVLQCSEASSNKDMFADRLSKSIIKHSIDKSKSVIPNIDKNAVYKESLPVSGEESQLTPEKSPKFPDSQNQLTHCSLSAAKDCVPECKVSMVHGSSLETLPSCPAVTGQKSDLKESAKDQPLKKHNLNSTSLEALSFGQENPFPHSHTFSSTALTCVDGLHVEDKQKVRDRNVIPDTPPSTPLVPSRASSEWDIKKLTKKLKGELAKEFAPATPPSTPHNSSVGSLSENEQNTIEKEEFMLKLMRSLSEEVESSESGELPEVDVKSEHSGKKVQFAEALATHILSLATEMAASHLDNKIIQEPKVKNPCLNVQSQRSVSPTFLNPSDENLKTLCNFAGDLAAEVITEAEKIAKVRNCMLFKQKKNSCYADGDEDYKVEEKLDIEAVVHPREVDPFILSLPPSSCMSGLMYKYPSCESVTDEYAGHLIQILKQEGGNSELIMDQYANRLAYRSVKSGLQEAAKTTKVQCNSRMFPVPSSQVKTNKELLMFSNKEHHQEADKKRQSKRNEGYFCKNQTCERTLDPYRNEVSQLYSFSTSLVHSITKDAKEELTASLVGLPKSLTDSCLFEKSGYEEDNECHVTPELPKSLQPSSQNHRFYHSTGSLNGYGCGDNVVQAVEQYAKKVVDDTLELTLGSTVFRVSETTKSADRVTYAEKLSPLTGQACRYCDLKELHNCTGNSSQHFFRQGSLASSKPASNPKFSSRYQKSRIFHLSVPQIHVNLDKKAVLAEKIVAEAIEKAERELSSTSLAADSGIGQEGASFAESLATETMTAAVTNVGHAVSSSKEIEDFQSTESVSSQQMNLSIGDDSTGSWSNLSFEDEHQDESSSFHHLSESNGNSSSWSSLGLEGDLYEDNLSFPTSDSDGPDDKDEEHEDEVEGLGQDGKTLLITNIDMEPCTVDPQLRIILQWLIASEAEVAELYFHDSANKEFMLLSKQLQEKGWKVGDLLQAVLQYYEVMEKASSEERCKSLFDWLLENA
UniProt Q9H8T0: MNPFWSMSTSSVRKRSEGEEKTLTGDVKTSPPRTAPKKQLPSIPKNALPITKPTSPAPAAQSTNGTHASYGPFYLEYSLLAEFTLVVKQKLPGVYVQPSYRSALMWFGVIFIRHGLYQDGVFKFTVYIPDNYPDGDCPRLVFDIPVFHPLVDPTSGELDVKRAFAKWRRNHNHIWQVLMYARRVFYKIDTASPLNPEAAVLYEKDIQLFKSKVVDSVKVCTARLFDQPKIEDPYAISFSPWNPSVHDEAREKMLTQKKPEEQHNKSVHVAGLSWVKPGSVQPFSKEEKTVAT
UniProt P07327: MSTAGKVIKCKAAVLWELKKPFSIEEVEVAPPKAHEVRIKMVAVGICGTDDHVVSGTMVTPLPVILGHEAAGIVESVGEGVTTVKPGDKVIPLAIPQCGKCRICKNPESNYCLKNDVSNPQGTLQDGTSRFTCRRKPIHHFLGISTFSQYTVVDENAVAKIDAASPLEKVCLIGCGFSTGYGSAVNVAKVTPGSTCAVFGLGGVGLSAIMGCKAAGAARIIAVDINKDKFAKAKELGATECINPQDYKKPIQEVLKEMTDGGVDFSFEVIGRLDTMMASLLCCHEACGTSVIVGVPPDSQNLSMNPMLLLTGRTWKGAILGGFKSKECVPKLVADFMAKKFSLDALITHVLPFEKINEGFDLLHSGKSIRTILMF

Key:
Test in all cases: log2 fold change, soluble protein after heating vs DMSO (PISA); higher = thermal stabilisation; K562 cells, 10 uM, 30 min; active = over 0.2 and 3.5 SD of the protein, either way, in both replicates (recomputed)
[1] = compound: NC(=O)Nc1cc(-c2cccc(F)c2)sc1C(=O)N[C@H]1CCCNC1
Method in brief: (§1)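 Soluble protein was quantified by TMTpro 16plex LC-MS/MS after channel sums were equalised. It was obtained as the supernatant after 21,000xg for 90 min from pooled aliquots of K562 cells (2×10^6 cells/mL, 10 μM compound, 30 min) heated for 3 min across 48°C-58°C and extracted in PBS with 0.5% NP-40 at 4°C. Thermal stability values are relative to control samples and come from duplicates. They are given as log2 fold changes.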

[2] = compound: NC(=O)c1cnc(N[C@@H]2CCCC[C@@H]2N)nc1Nc1cccc(-n2nccn2)c1
Method in brief: as §1

[3] = compound: NC1(c2ccc(-c3nc4ccn5c(=O)[nH]nc5c4cc3-c3ccccc3)cc2)CCC1
Method in brief: as §1

[4] = compound: NCC(=O)Nc1ccc(-n2nc(C(F)(F)F)cc2-c2ccc3c(ccc4ccccc43)c2)cc1
Method in brief: as §1

entinostat = compound: Nc1ccccc1NC(=O)c1ccc(CNC(=O)OCc2cccnc2)cc1 [entinostat]
Method in brief: as §1

vorinostat = compound: O=C(CCCCCCC(=O)Nc1ccccc1)NO [vorinostat]
Method in brief: as §1

citarinostat = compound: O=C(CCCCCCNC(=O)c1cnc(N(c2ccccc2)c2ccccc2Cl)nc1)NO [citarinostat]
Method in brief: as §1

silmitasertib = compound: O=C(O)c1ccc2c(c1)nc(Nc1cccc(Cl)c1)c1ccncc12 [silmitasertib]
Method in brief: as §1

[5] = compound: O=C1NC(=O)C(c2cnc3ccccn23)=C1c1cn2c3c(cc(F)cc13)CN(C(=O)N1CCCCC1)CC2
Method in brief: as §1

[6] = compound: c1cc(OCCN2CCCCC2)cc(-c2n[nH]c3ccc(-c4nnc[nH]4)cc23)c1
Method in brief: as §1

Measured: log2 fold change

AHNAK (UniProt Q09666)
inactive: [1] -0.026 | [2] 0.055 | [3] 0.04 | [4] 0.001 | entinostat -0.069 | vorinostat -0.058 | citarinostat -0.003 | silmitasertib 0.018 | [5] -0.007 | [6] -0.016

AGFG1 isoform 4 (UniProt P52594)
inactive: [1] 0.01 | [2] 0.025 | [3] -0.011 | [4] 0.049 | entinostat 0.007 | vorinostat 0.031 | citarinostat 0.117 | silmitasertib 0.004 | [5] 0.131 | [6] -0.01

AHSA1 (UniProt O95433)
inactive: [1] -0.002 | [2] -0.005 | [3] -0.131 | [4] -0.043 | entinostat 0.022 | vorinostat 0.013 | citarinostat 0.026 | silmitasertib 0.019 | [5] -0.009 | [6] -0.003

AGPAT3 isoform 3 (UniProt Q9NRZ7)
inactive: [1] 0.008 | [2] -0.044 | [3] -0.141 | [4] -0.041 | entinostat 0.004 | vorinostat 0.004 | citarinostat 0.029 | silmitasertib 0.008 | [5] -0.079 | [6] -0.044

AIFM2 (UniProt Q9BRQ8)
inactive: [1] 0.016 | [2] -0.019 | [3] 0.034 | [4] -0.02 | entinostat -0.01 | vorinostat -0.053 | citarinostat 0.046 | silmitasertib 0.03 | [5] 0.047 | [6] -0.034

ADH5 (UniProt P11766)
inactive: [1] 0.024 | [2] 0.002 | [3] -0.006 | [4] 0.021 | entinostat -0.031 | vorinostat -0.013 | citarinostat 0.015 | silmitasertib -0.026 | [5] -0.03 | [6] -0.016

ADD1 isoform 3 (UniProt P35611)
inactive: [1] 0.03 | [2] -0.016 | [3] 0.034 | [4] -0.02 | entinostat -0.071 | vorinostat 0.01 | citarinostat 0.034 | silmitasertib -0.01 | [5] -0.06 | [6] 0.01

ALDH2 isoform 2 (UniProt P05091)
inactive: [1] -0.345 | [2] -0.389 | [4] -0.351 | entinostat -0.14 | vorinostat 0.083 | citarinostat -0.055 | [5] 0.051 | [6] -0.36

ADIPOR1 (UniProt Q96A54)
inactive: [1] -0.093 | [3] -0.024 | [4] -0.114 | entinostat 0.013 | citarinostat -0.172 | silmitasertib 0.067 | [5] 0.041 | [6] 0.266

ALDOA (UniProt P04075)
inactive: [1] 0.073 | [2] 0.072 | [3] 0.089 | [4] 0.07 | entinostat -0.084 | vorinostat -0.079 | citarinostat -0.051 | silmitasertib -0.02 | [6] -0.072

AFF4 (UniProt Q9UHB7)
inactive: [1] -0.338 | [2] 0.034 | [3] -0.358 | entinostat 0.008 | vorinostat 0.199 | silmitasertib 0.02 | [5] 0.166

ALDOB (UniProt P05062)
inactive: [1] 0.011 | entinostat 0.335 | [5] -0.073

AK6 (UniProt Q9Y3D8)
inactive: [1] -0.034 | [2] -0.072 | [3] -0.043 | [4] -0.138 | entinostat 0.145 | vorinostat 0.074 | citarinostat 0.103 | silmitasertib 0.058 | [5] -0.051 | [6] -0.009

ALG12 (UniProt Q9BV10)
inactive: [1] 0.026 | [2] -0.12 | [3] -0.088 | [4] 0.08 | entinostat 0.072 | citarinostat -0.029 | silmitasertib -0.008 | [5] -0.01 | [6] -0.082

AGPAT4 (UniProt Q9NRZ5)
inactive: [1] -0.145 | [3] -0.259 | entinostat 0.136 | vorinostat -0.102 | citarinostat -0.051 | silmitasertib 0.066 | [6] 0.046

AGPAT2 (UniProt O15120)
inactive: [1] 0.047 | [2] -0.083 | [3] -0.028 | [4] 0.054 | entinostat 0.088 | vorinostat -0.063 | citarinostat -0.032 | silmitasertib -0.047 | [5] -0.056 | [6] -0.01

ADPRH (UniProt P54922)
active: [4] -0.623
inactive: [1] 0.015 | [3] -0.178 | entinostat -0.034 | vorinostat -0.039 | silmitasertib 0.086 | [5] -0.104

AKAP11 (UniProt Q9UKA4)
inactive: [1] 0.047 | entinostat -0.03 | vorinostat -0.071 | citarinostat -0.222 | [6] 0.074

AKTIP isoform 2 (UniProt Q9H8T0)
inactive: [1] -0.07 | [3] -0.197 | entinostat -0.011 | citarinostat 0.035 | silmitasertib 0.094 | [5] -0.054 | [6] 0.059

AMDHD2 (UniProt Q9Y303)
inactive: [1] 0.046 | [4] 0.131 | entinostat -0.033 | vorinostat 0.046 | citarinostat -0.164 | [6] 0.344

ALAS1 (UniProt P13196)
inactive: [1] -0.244 | [2] -0.024 | [3] -0.062 | entinostat -0.226 | vorinostat -0.123 | citarinostat 0.041 | silmitasertib -0.062 | [5] -0.15 | [6] 0.085

ADH1A (UniProt P07327)
inactive: [1] 0.109 | entinostat 0.011

ADGRV1 (UniProt Q8WXG9)
inactive: [1] -0.153 | [3] 0.029 | entinostat -0.1 | vorinostat 0.248 | citarinostat -0.114 | silmitasertib 0.071 | [5] 0.04 | [6] -0.024
